Test results published in patent publication US20220098681A1.
These are yes or no findings as the source states them, for the method shown. In cells and extracts the contact can be indirect. Some results given as binding are weak or reduced against the parent protein; the word gives no strength. For part of these data: Sequences can lack the tags named with a protein.

Legend:
[1] = biological target: FLAG-tagged CHIKV nsP3 (pCI-neo-3×FLAG plasmid expressing the CHIKV nsP3) (chikungunya virus) (UniProt Q8JUX6); assay: co-immunoprecipitation (data not shown)
[2] = biological target: FLAG-tagged CHIKV nsP3 (pCI-neo-3×FLAG plasmid expressing the CHIKV nsP3) (chikungunya virus) (UniProt Q8JUX6); assay: co-immunoprecipitation
[3] = biological target: FLAG-tagged CHIKV nsP3 (pCI-neo-3×FLAG plasmid expressing the CHIKV nsP3) (chikungunya virus) (UniProt Q8JUX6); assay: summary of the co-immunoprecipitation and pull-down experiments

B1: murine FHL1 (protein)
chain: MSEKFDCHYCRDPLQGKKYVQKDGRHCCLKCFDKFCANTCVDCRKPISADAKEVHYKNRYWHDNCFRCAKCLHPLASETFVSKDGKILCNKCATREDSPRCKGCFKAIVAGDQNVEYKGTVWHKDCFTCSNCKQVIGTGSFFPKGEDFYCVTCHETKFAKHCVKCNKAITSGGITYQDQPWHAECFVCVTCSKKLAGQRFTAVEDQYYCVDCYKNFVAKKCAGCKNPITGFGKGSSVVAYEGQSWHDYCFHCKKCSVNLANKRFVFHNEQVYCPDCAKKL
Question: Which binding [1] does the source give for B1 here?
Answer: Its binding is “binds”.

B2: FHL1A-R4* fusion protein (FHL1A fused to a randomized peptide sequence of HVD-R4) (protein)
chain: AEKFDCHYCRDPLQGKKYVQKDGHHCCLKCFDKFCANTCVECRKPIGADSKEVHYKNRFWHDTCFRCAKCLHPLANETFVAKDNKILCNKCTTREDSPKCKGCFKAIVAGDQNVEYKGTVWHKDCFTCSNCKQVIGTGSFFPKGEDFYCVTCHETKFAKHCVKCNKAITSGGITYQDQPWHADCFVCVTCSKKLAGQRFTAVEDQYYCVDCYKNFVAKKCAGCKNPITGFGKGSSVVAYEGQSWHDYCFHCKKCSVNLANKRFVFHQEQVYCPDCAKKL
Question: How did the binding [2] turn out when B2 was run?
Answer: The binding was “binds”.

B3: endogenous FHL1 in 293T cells (protein)
chain: B2 chain
Question: B3 was tested. Which binding [3] did it give?
Answer: The binding was “binds”.
